B1: putative T4SS effector 02400 (ORF RS02400), hypothetical protein (protein, UniProt B2FKX6 1-143)
chain: MGSPTTHRYRSMAMAEITPNHPDYGLNQQVRQGVAALDAQHGRAFDQTSERLTASLTVLAREQGLQQVDHVLVSNATAQHPAGHNVFVVQGDPANPAHLRAMMPTAVAAQTPVEQSMQKLGLGVQPQVEVQAHEMQHPAPRLG
B2: putative T4SS effector 14405 (ORF RS14405), hypothetical protein (protein, UniProt B2FJJ5 1-440)
chain: MSGLTERDLSVLGSYARDGNRELYWNYLSQLPGADGYGTLALGVVRNDSLPGRVANTYAQDYAKSQQEEGSRFPNAQLTERQWESFGQTLLERDLELRQQWMNERRPDLALNLPGKDVMLAHDRAFERHELDPNCWTPRVLLQAAEQKSGPAKLEQIWTNMLNNDYAGGPRVGNTSVDAISQMGWTKGGQYLTRLSVLEATQALEGRSAVDPNVIGGNSYYAMYFEADRKWASISAGGGHMSLREITDPSRIAELNDAREVRLERLEKRTQFHPDDPYRTITRSPLTAAVDDVADPSQAPTRLADIGPGHREYTLLQQVREGVAAIDASAGRTHDENSERLVASVMALARRNQLERADHVLLSAQTADAPAGRNVFVVQGEMTDPAHLRASMPTDIAVQTPVAQSLQQMKAVDLDRQQTAAQRQQEIDVQARENHAMRMG
B3: putative T4SS effector 19100 (ORF RS19100), putative lipase (protein, UniProt B2FUP9 1-494)
chain: MRPLTNAALANAAYSPPSHPAPGDKESLRVDGEDFEVLGRRDAVSGYQGVVYRNIKTNEIIIAHRGTEFDRQAMLDGGVDAAMVSARVNAQIDDALVLTKQAIKQAEENGYGPVYVTGHSLGGALAQITAYHYNLPGDAFNPYGAAGLAYRLPEGQPANAAPFTNHVMAGDLVSAAGPHYGKVEMYALPKELGVLRDAEQGQRIASLVSLGMKSGHVMSAAVAVQLGDSHRMVHFIDRMTDKGPVQSVLDDPGARITDAEDLRRIAEYRKDIHQLRLGATVLVGGGPGLLRDGVNYLLGTGEAGAYARREAEAVQHAESALKAGERPVQEATEKGSPSLSNPGFAPKSPLQESIESTLDKAGLDPRKEGHPDHALYRQIRDGVSAVDARHGRGFDETSERVTAGLLATAKRSGLERVDHVVLGNPPSDGSGPRMFVVQGALDNPAHLRASIAVSEAVNTPVDQSLAKVEQISQAQQVAQQEQTQEQTRTAMRMG

These are yes or no findings as the source states them, for the method shown. Binding can be weak; no strength is given.

From publication PMC11253643 come the findings set out here.

The target of the test is S. maltophilia VirD4, T4SS coupling protein (S. maltophilia K279a). Kind of test: two-hybrid; BACTH in E. coli BTH101: bait T18-VirD4 (high-copy pUT18C), prey T25-effector (low-copy pKT25); 0.5 mM IPTG, ~20 h at 30°C; β-galactosidase (ONPG) in Miller units; positive = at least four times the negative control.
Regarding B1, the binding result is on record as “binds”.

On to B2, for which the binding result is given as “binds”.

In the case of B3, the binding entry is “binds”.
